The supplement of paper PMC4604168 (melanoma cell lines)
The list shows a part of the results. Many values rest on one well or one pass, so single values are uncertain.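 Imaging used 1,536-well plates; nuclei positive for cleaved PARP by antibody were divided by total DNA-stained nuclei to yield the apoptosis fraction. Doses for screening kept most cells viable, and cell lines differ markedly in resting and induced cleaved-PARP levels.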

Experiments:
Experiment in all cases: cleaved PARP positive nuclei fraction relative to DMSO control; melanoma cells; higher = more apoptosis
Details in all cases: library dose: low library concentration; 72 h
WM115 = tested on: WM115
WM1716 = tested on: WM1716
WM1745 = tested on: WM1745
WM3526 = tested on: WM3526
WM3619 = tested on: WM3619
WM451Lu = tested on: WM451Lu

Row | SMILES | cleaved PARP positive nuclei fraction (WM115) | cleaved PARP positive nuclei fraction (WM1716) | cleaved PARP positive nuclei fraction (WM1745) | cleaved PARP positive nuclei fraction (WM3526) | cleaved PARP positive nuclei fraction (WM3619) | cleaved PARP positive nuclei fraction (WM451Lu)
1 | Clc1ccc(Nc2nnc(Cc3ccncc3)c3ccccc23)cc1 [vatalanib] + COc1cc(Nc2ncc(F)c(Nc3ccc4c(n3)NC(=O)C(C)(C)O4)n2)cc(OC)c1OC [Tamatinib] (first compound 2 µM, partner dose 0.4 µM) | 140% | 135% | 141% | 159% | 109% | 98.7%
2 | C=CCNC1=C2C[C@@H](C)C[C@H](OC)[C@H](O)[C@@H](C)/C=C(\C)[C@H](OC(N)=O)[C@@H](OC)/C=C\C=C(/C)C(=O)NC(=CC1=O)C2=O [Tanespimycin] + C[C@@H]1CCN(C(=O)CC#N)C[C@@H]1N(C)c1ncnc2[nH]ccc12 [CP690550] (first compound 0.002 µM, partner dose 1 µM) | 70.1% | 48.7% | 115% | 39.7% | 101% | 146%
3 | CC(=O)c1c(C)c2cnc(Nc3ccc(N4CCNCC4)cn3)nc2n(C2CCCC2)c1=O [palbociclib] + C#Cc1cccc(Nc2ncnc3cc(OCCOC)c(OCCOC)cc23)c1 [erlotinib] (first compound 0.04 µM, partner dose 0.8 µM) | 108% | 276% | 142% | 147% | 142% | 126%
4 | C[C@]1(c2nc3c(C(N)=O)cccc3[nH]2)CCCN1 [Veliparib] + Cn1cc(/C=C2\C(=O)Nc3cccnc32)c2ccccc21 [GW441756] (first compound 1.4 µM, partner dose 0.4 µM) | 72.6% | 104% | 108% | 72.6% | 59.9% | 90.5%
5 | CO[C@@H]1[C@H](N(C)C(=O)c2ccccc2)C[C@H]2O[C@]1(C)n1c3ccccc3c3c4c(c5c6ccccc6n2c5c31)C(=O)NC4 [Midostaurin] + Oc1nc(-c2ccc(C(F)(F)F)cc2)nc2c1CSCC2 [XAV939] (first compound 0.08 µM, partner dose 2 µM) | 211% | 239% | 161% | 69.3% | 95.8% | 132%
6 | OCc1c[nH]c2ccccc12 [Indole-3-carbinol] + O=C(O)C(=O)Nc1sc2c(c1C(=O)O)CCNC2 [TCS401] (first compound 0.8 µM, partner dose 1.66667 µM) | 58.5% | 44.8% | 94.5% | 225% | 93.2% | 32.2%
7 | COc1cc(Nc2ncc(F)c(Nc3ccc4c(n3)NC(=O)C(C)(C)O4)n2)cc(OC)c1OC [Tamatinib] + COc1cc(N2CCC(N3CCN(C)CC3)CC2)ccc1Nc1ncc(Cl)c(Nc2ccccc2S(=O)(=O)C(C)C)n1 [NVP-TAE684] (first compound 0.4 µM, partner dose 0.08 µM) | 181% | 101% | 173% | 94% | 120% | 76.3%
8 | NC(=O)Nc1cc(-c2cccc(F)c2)sc1C(=O)N[C@H]1CCCNC1 + O=C(O)c1ccc(-c2c[nH]c3ncc(-c4ccccc4)cc23)cc1C1CCCC1 [GSK650394] (first compound 0.02 µM, partner dose 0.16 µM) | 103% | 213% | 110% | 59.2% | 219% | 69.4%
9 | Nc1cccc2c1CN(C1CCC(=O)NC1=O)C2=O (stereo not drawn) [lenalidomide] + CCc1ccc(CCOc2ccc(CC3SC(=O)NC3=O)cc2)nc1 [pioglitazone] (first compound 1 µM, partner dose 2 µM) | 92.9% | 95.2% | 108% | 77.4% | 91.9% | 296%
10 | Cn1c(Nc2ccc(C(F)(F)F)cc2)nc2cc(Oc3ccnc(-c4ncc(C(F)(F)F)[nH]4)c3)ccc21 + Nc1cccc2c1CN(C1CCC(=O)NC1=O)C2=O [lenalidomide] (first compound 0.08 µM, partner dose 1 µM) | 516% | 103% | 136% | 327% | 245% | 105%
11 | OCc1c[nH]c2ccccc12 [Indole-3-carbinol] + Oc1cc(-c2nc(-c3ccccc3)[nH]c2-c2ccncc2)ccc1Cl [L779450] (first compound 0.8 µM, partner dose 0.2 µM) | 121% | 56.7% | 92.3% | 75.6% | 95.8% | 120%
12 | CC(=O)c1c(C)c2cnc(Nc3ccc(N4CCNCC4)cn3)nc2n(C2CCCC2)c1=O [palbociclib] + CC(C)(C)c1cnc(CSc2cnc(NC(=O)C3CCNCC3)s2)o1 [SNS-032] (first compound 0.04 µM, partner dose 0.01 µM) | 86.4% | 179% | 123% | 107% | 144% | 51.7%
13 | Cn1c(Nc2ccc(C(F)(F)F)cc2)nc2cc(Oc3ccnc(-c4ncc(C(F)(F)F)[nH]4)c3)ccc21 + O=c1cc(-c2cccc3c2Sc2ccccc2S3)oc(N2CCOCC2)c1 [KU55933] (first compound 0.08 µM, partner dose 1 µM) | 1230% | 132% | 147% | 146% | 119% | 79.5%

2 entries picked at random from those above, as already listed:
Row | SMILES | cleaved PARP positive nuclei fraction (WM115) | cleaved PARP positive nuclei fraction (WM1716) | cleaved PARP positive nuclei fraction (WM1745) | cleaved PARP positive nuclei fraction (WM3526) | cleaved PARP positive nuclei fraction (WM3619) | cleaved PARP positive nuclei fraction (WM451Lu)
5 | CO[C@@H]1[C@H](N(C)C(=O)c2ccccc2)C[C@H]2O[C@]1(C)n1c3ccccc3c3c4c(c5c6ccccc6n2c5c31)C(=O)NC4 [Midostaurin] + Oc1nc(-c2ccc(C(F)(F)F)cc2)nc2c1CSCC2 [XAV939] (first compound 0.08 µM, partner dose 2 µM) | 211% | 239% | 161% | 69.3% | 95.8% | 132%
12 | CC(=O)c1c(C)c2cnc(Nc3ccc(N4CCNCC4)cn3)nc2n(C2CCCC2)c1=O [palbociclib] + CC(C)(C)c1cnc(CSc2cnc(NC(=O)C3CCNCC3)s2)o1 [SNS-032] (first compound 0.04 µM, partner dose 0.01 µM) | 86.4% | 179% | 123% | 107% | 144% | 51.7%
